This continues a long series; more values of the same kind are listed elsewhere.
System: panel of 235 cell lines representing 14 tumor lineages
Test: ATPlite growth inhibition screening of a human cancer cell line panel (Horizon Discovery)
Format: cell-based
Procedure: A 72 hour ATPlite assay (except for DLD-1 and HCT116 cell lines, for which a 120 hour assay was performed) with growth inhibition analysis was performed in two parts at Horizon Discovery Ltd, UK. Samples were tested as four replicates in 384-well assay plates. Serial dilution series of antibody, starting from 0.072 μM final concentration was used for all tested cell lines. For TRAIL (Invitrogen; Cat # PHC1634) serial dilution series starting from 0.01 μM final concentration for the cell lines tested in the first part and 0.17 μM final concentration for the cell lines tested in the second part of the screening was used.

Question: Which results are given for “TRAIL: natural DR5 ligand, recombinant human TRAIL/APO-2L”?
Answer: Max Inhibition (A498, kidney cancer, screening #2): 96.1%; Max Inhibition (A704, kidney cancer, screening #1): 77.1%; Max Inhibition (BICR 18, head and neck cancer, screening #1): 3.4%; Max Inhibition (BICR 22, head and neck cancer, screening #1): 13.6%; Max Inhibition (BICR 31, head and neck cancer, screening #1): 38.9%; Max Inhibition (BT-20, breast cancer (TNBC), screening #2): 48.9%; Max Inhibition (BT-549, breast cancer (TNBC), screening #2): 44.0%; Max Inhibition (C2BBe1, colorectal cancer, screening #1): 8.8%; Max Inhibition (CJM, head and neck cancer, screening #1): 12.8%; Max Inhibition (CL-11, colorectal cancer, screening #1): 85.9%; Max Inhibition (CL-34, colorectal cancer, screening #1): 98.8%; Max Inhibition (CL-40, colorectal cancer, screening #1): 57.3%; Max Inhibition (COLO320DM, colorectal cancer, screening #1): 8.0%; Max Inhibition (COLO-201, colorectal cancer, screening #1): 89.1%; Max Inhibition (COLO-205, colorectal cancer, screening #1): 83.5%; Max Inhibition (COLO-206F, colorectal cancer, screening #1): 99.2%; Max Inhibition (COLO-320, colorectal cancer, screening #1): 3.9%; Max Inhibition (COLO-678, colorectal cancer, screening #1): 10.1%; Max Inhibition (COLO-684, endometrial cancer, screening #1): 16.6%; Max Inhibition (DBTRG-05MG, neural tissue cancer, screening #2): 36.0%; Max Inhibition (DLD-1, colorectal cancer, screening #1): 55.1%; Max Inhibition (DLD-1_BRCA2 (−/−), colorectal cancer, screening #1): 60.0%; Max Inhibition (DU-4475, breast cancer (TNBC), screening #2): 87.0%; Max Inhibition (EC-GI-10, head and neck cancer, screening #1): 29.6%; Max Inhibition (ECC10, gastric cancer, screening #1): 14.0%; Max Inhibition (ECC12, gastric cancer, screening #1): 27.4%; Max Inhibition (FTC-238, head and neck cancer, screening #1): 86.7%; Max Inhibition (G-401, kidney cancer, screening #2): 76.6%; Max Inhibition (GP2D, colorectal cancer, screening #1): 100.0%; Max Inhibition (GSS, gastric cancer, screening #1): 15.4%; Max Inhibition (GSU, gastric cancer, screening #1): 81.6%; Max Inhibition (H4, neural tissue cancer, screening #2): 98.9%; Max Inhibition (HCC38, breast cancer (TNBC), screening #2): 96.9%; Max Inhibition (HCC70, breast cancer (TNBC), screening #2): 3.6%; Max Inhibition (HCC1187, breast cancer (TNBC), screening #2): 99.4%; Max Inhibition (HCC1806, breast cancer (TNBC), screening #2): 97.8%; Max Inhibition (HCT-15, colorectal cancer, screening #1): 98.6%; Max Inhibition (HCT-116_ARID1A (Q456*/Q456*), colorectal cancer, screening #1): 50.2%; Max Inhibition (HCT-116_KRAS (+/−), colorectal cancer, screening #1): 88.7%; Max Inhibition (HCT-116_PAR-007, colorectal cancer, screening #1): 14.2%; Max Inhibition (HCT-116_PIK3A (+/−)KO mt H1047R, colorectal cancer, screening #1): 59.8%; Max Inhibition (HCT-116_PTEN (−/−), colorectal cancer, screening #1): 38.0%; Max Inhibition (HCT-116_TP53 (−/−), colorectal cancer, screening #1): 17.2%; Max Inhibition (HEC-1, endometrial cancer, screening #1): 8.1%; Max Inhibition (HEC-1-A, endometrial cancer, screening #1): 22.8%; Max Inhibition (HEC-50B, endometrial cancer, screening #1): 16.6%; Max Inhibition (HEC-108, endometrial cancer, screening #1): 64.9%; Max Inhibition (HEC-265, endometrial cancer, screening #1): 100.0%; Max Inhibition (HLE, liver cancer, screening #1): 56.0%; Max Inhibition (HMC-1-8, breast cancer (TNBC), screening #2): 70.0%; Max Inhibition (HRT-186, colorectal cancer, screening #1): 52.5%; Max Inhibition (HSC-4, head and neck cancer, screening #1): 0.5%; Max Inhibition (HT55, colorectal cancer, screening #1): 76.4%; Max Inhibition (HT-29, colorectal cancer, screening #1): 12.2%; Max Inhibition (HT-115, colorectal cancer, screening #1): 99.7%; Max Inhibition (HUH-6-clone5, liver cancer, screening #1): 20.2%; Max Inhibition (HuCCT1, liver cancer, screening #1): 7.5%; Max Inhibition (HuH-1, liver cancer, screening #1): 47.7%; Max Inhibition (HuH-28, liver cancer, screening #1): 17.5%; Max Inhibition (IST-SL2, SCLC, screening #1): 21.0%; Max Inhibition (JHUEM-2, endometrial cancer, screening #1): 66.4%; Max Inhibition (JHUEM-3, endometrial cancer, screening #1): 18.4%; Max Inhibition (KE-97, gastric cancer, screening #1): 23.4%; Max Inhibition (KNS-81, neural tissue cancer, screening #2): −6.6%; Max Inhibition (KYM-1, head and neck cancer, screening #1): 30.2%; Max Inhibition (KYSE-30, head and neck cancer, screening #1): 8.0%; Max Inhibition (KYSE-70, head and neck cancer, screening #1): 46.0%

— patent US20200247897A1, “THERAPEUTIC ANTIBODIES BASED ON MUTATED IGG HEXAMERS” (GENMAB B.V., priority 2017, published 2020)
